Experimental data taken from patent US11098266B2, “Organic compounds” (Givaudan SA, priority 2017, dated 2021).

assay: Olfactory description of the olfactorily pure product; conditions: olfactorily pure product after distillation

Row | SMILES | odor description
1 | COC(=O)OCCC(C)CCC=C(C)C (racemic) [Example 1, 3,7-dimethyloct-6-en-1-yl methyl carbonate] | fruity-rosy odor with hints of pear and citronella
2 | COC(=O)OC/C=C(\C)CCC=C(C)C [Example 2, (E)-3,7-dimethylocta-2,6-dien-1-yl methyl carbonate] | fruity-rosy odor with a pear facet
3 | COC(=O)OCCc1ccccc1 [Example 3, methyl phenethyl carbonate] | rosy-floral odor with a slight mushroom facet
4 | C=C(C)CCCC(C)CCOC(=O)OC (centres unmarked) [Example 4, 3,7-dimethyloct-7-en-1-yl methyl carbonate] | fruity-rosy odor with pear and banana connotations
5 | COC(=O)OC/C=C(\C)CCC=C(C)C [Example 7, (E,Z)-3,7-dimethylocta-2,6-dien-1-yl methyl carbonate] | fruity, floral, rosy odour
